# Data as given in PubChem BioAssay AID1159598 (NIAID, 2016)
# Test: 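Canonical TLR pathway genes needed for TNF promoter response to flagellin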
# System: human THP-1 B5 reporter cells made macrophage-like with PMA
# Reagents: single siRNA against human genes
# Duration: reporter read 48 to 72 hours after siRNA transfection
# Treatment: flagellin stimulation for 4 hours, dose not given
# Measurement: 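Firefly to renilla ratio from a TNF promoter reporter after 4 h flagellin, as robust z against negative controls averaged across replicates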
# Scale: TNF reporter z-score: higher = stronger TNF promoter activity than controls
# Hit rule: 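a row is called active when its replicate-mean z lies at or beyond 1.5 in either direction, so raised and lowered signal both count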
# Calls: active = reporter shifted beyond 1.5 z, up or down; inactive = reporter within 1.5 z of controls
# In all, the deposit lists 756 reagents; below is a random part of them. In the full data, 142 (19%) got an active call. 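Active includes both higher and lower reporter signal; each gene has six separate siRNAs, and no gene-level summary is deposited.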 Reagents against one gene are numbered here. The record does not give: the amount of reagent.
gene symbol,reagent no.,TNF reporter z-score,Call
MAP2K7 (mitogen-activated protein kinase kinase 7),1,-0.395,inactive
MAP2K7 (mitogen-activated protein kinase kinase 7),2,-1.88,active
MAP2K7 (mitogen-activated protein kinase kinase 7),3,-0.906,inactive
MAP2K7 (mitogen-activated protein kinase kinase 7),4,-1.14,inactive
MAP2K7 (mitogen-activated protein kinase kinase 7),5,-1.9,active
MAP2K7 (mitogen-activated protein kinase kinase 7),6,-0.977,inactive
AKT2 (AKT serine/threonine kinase 2),1,-2.44,active
AKT2 (AKT serine/threonine kinase 2),2,-0.529,inactive
AKT2 (AKT serine/threonine kinase 2),3,-0.15,inactive
AKT2 (AKT serine/threonine kinase 2),4,-0.14,inactive
AKT2 (AKT serine/threonine kinase 2),5,1.13,inactive
AKT2 (AKT serine/threonine kinase 2),6,-0.464,inactive
BTK (Bruton tyrosine kinase),1,0.276,inactive
BTK (Bruton tyrosine kinase),2,0.304,inactive
BTK (Bruton tyrosine kinase),3,-0.973,inactive
BTK (Bruton tyrosine kinase),4,-0.958,inactive
BTK (Bruton tyrosine kinase),5,-0.278,inactive
BTK (Bruton tyrosine kinase),6,0.228,inactive
ATF7 (activating transcription factor 7),1,-2.41,active
ATF7 (activating transcription factor 7),2,-0.0462,inactive
ATF7 (activating transcription factor 7),3,-0.768,inactive
ATF7 (activating transcription factor 7),4,-1.22,inactive
ATF7 (activating transcription factor 7),5,-0.945,inactive
ATF7 (activating transcription factor 7),6,-1.2,inactive
UBE2V1 (ubiquitin conjugating enzyme E2 V1),1,0.00619,inactive
UBE2V1 (ubiquitin conjugating enzyme E2 V1),2,-0.259,inactive
UBE2V1 (ubiquitin conjugating enzyme E2 V1),3,-0.0882,inactive
UBE2V1 (ubiquitin conjugating enzyme E2 V1),4,-0.872,inactive
UBE2V1 (ubiquitin conjugating enzyme E2 V1),5,-0.454,inactive
UBE2V1 (ubiquitin conjugating enzyme E2 V1),6,0.745,inactive
ITGAM (integrin subunit alpha M),1,2.09,active
ITGAM (integrin subunit alpha M),2,-0.931,inactive
ITGAM (integrin subunit alpha M),3,-1.16,inactive
ITGAM (integrin subunit alpha M),4,-0.903,inactive
ITGAM (integrin subunit alpha M),5,-0.242,inactive
ITGAM (integrin subunit alpha M),6,0.958,inactive
IL12B (interleukin 12B),1,-1.69,active
IL12B (interleukin 12B),2,-0.351,inactive
IL12B (interleukin 12B),3,-1.11,inactive
IL12B (interleukin 12B),4,-1.02,inactive
IL12B (interleukin 12B),5,-2.7,active
IL12B (interleukin 12B),6,-1.41,inactive
"FOS (Fos proto-oncogene, AP-1 transcription factor subunit)",1,-0.00285,inactive
"FOS (Fos proto-oncogene, AP-1 transcription factor subunit)",2,-0.17,inactive
"FOS (Fos proto-oncogene, AP-1 transcription factor subunit)",3,1.64,active
"FOS (Fos proto-oncogene, AP-1 transcription factor subunit)",4,-0.0294,inactive
"FOS (Fos proto-oncogene, AP-1 transcription factor subunit)",5,0.815,inactive
"FOS (Fos proto-oncogene, AP-1 transcription factor subunit)",6,-0.135,inactive
IKBKB (inhibitor of nuclear factor kappa B kinase subunit beta),1,0.403,inactive
IKBKB (inhibitor of nuclear factor kappa B kinase subunit beta),2,-0.783,inactive
IKBKB (inhibitor of nuclear factor kappa B kinase subunit beta),3,0.111,inactive
IKBKB (inhibitor of nuclear factor kappa B kinase subunit beta),4,0.164,inactive
IKBKB (inhibitor of nuclear factor kappa B kinase subunit beta),5,-0.104,inactive
IKBKB (inhibitor of nuclear factor kappa B kinase subunit beta),6,0.901,inactive
MAPK1 (mitogen-activated protein kinase 1),1,1.01,inactive
MAPK1 (mitogen-activated protein kinase 1),2,-0.375,inactive
MAPK1 (mitogen-activated protein kinase 1),3,0.225,inactive
MAPK1 (mitogen-activated protein kinase 1),4,0.618,inactive
MAPK1 (mitogen-activated protein kinase 1),5,0.118,inactive
MAPK1 (mitogen-activated protein kinase 1),6,-0.548,inactive
TLR1 (toll like receptor 1),1,0.66,inactive
TLR1 (toll like receptor 1),2,-0.652,inactive
TLR1 (toll like receptor 1),3,-1.53,active
TLR1 (toll like receptor 1),4,2.37,active
TLR1 (toll like receptor 1),5,-0.799,inactive
TLR1 (toll like receptor 1),6,-0.199,inactive
"RELB (RELB proto-oncogene, NF-kB subunit)",1,1.49,inactive
"RELB (RELB proto-oncogene, NF-kB subunit)",2,-0.159,inactive
"RELB (RELB proto-oncogene, NF-kB subunit)",3,0.757,inactive
"RELB (RELB proto-oncogene, NF-kB subunit)",4,-1.35,inactive
"RELB (RELB proto-oncogene, NF-kB subunit)",5,1.04,inactive
"RELB (RELB proto-oncogene, NF-kB subunit)",6,-0.026,inactive
TLR6 (toll like receptor 6),1,0.245,inactive
TLR6 (toll like receptor 6),2,-1.88,active
TLR6 (toll like receptor 6),3,-0.573,inactive
TLR6 (toll like receptor 6),4,-1.39,inactive
TLR6 (toll like receptor 6),5,0.209,inactive
TLR6 (toll like receptor 6),6,-0.942,inactive
IRAK1 (interleukin 1 receptor associated kinase 1),1,-1.1,inactive
IRAK1 (interleukin 1 receptor associated kinase 1),2,-1.94,active
IRAK1 (interleukin 1 receptor associated kinase 1),3,-5.23,active
IRAK1 (interleukin 1 receptor associated kinase 1),4,-1.38,inactive
IRAK1 (interleukin 1 receptor associated kinase 1),5,-3.11,active
IRAK1 (interleukin 1 receptor associated kinase 1),6,-2.29,active
PIK3R3 (phosphoinositide-3-kinase regulatory subunit 3),1,0.451,inactive
PIK3R3 (phosphoinositide-3-kinase regulatory subunit 3),2,-0.253,inactive
PIK3R3 (phosphoinositide-3-kinase regulatory subunit 3),3,-0.961,inactive
PIK3R3 (phosphoinositide-3-kinase regulatory subunit 3),4,-1.15,inactive
PIK3R3 (phosphoinositide-3-kinase regulatory subunit 3),5,-0.793,inactive
PIK3R3 (phosphoinositide-3-kinase regulatory subunit 3),6,-3.94,active

The list goes on; the last 20 above are carried over.
gene symbol,reagent no.,TNF reporter z-score,Call
"RELB (RELB proto-oncogene, NF-kB subunit)",5,1.04,inactive
"RELB (RELB proto-oncogene, NF-kB subunit)",6,-0.026,inactive
TLR6 (toll like receptor 6),1,0.245,inactive
TLR6 (toll like receptor 6),2,-1.88,active
TLR6 (toll like receptor 6),3,-0.573,inactive
TLR6 (toll like receptor 6),4,-1.39,inactive
TLR6 (toll like receptor 6),5,0.209,inactive
TLR6 (toll like receptor 6),6,-0.942,inactive
IRAK1 (interleukin 1 receptor associated kinase 1),1,-1.1,inactive
IRAK1 (interleukin 1 receptor associated kinase 1),2,-1.94,active
IRAK1 (interleukin 1 receptor associated kinase 1),3,-5.23,active
IRAK1 (interleukin 1 receptor associated kinase 1),4,-1.38,inactive
IRAK1 (interleukin 1 receptor associated kinase 1),5,-3.11,active
IRAK1 (interleukin 1 receptor associated kinase 1),6,-2.29,active
PIK3R3 (phosphoinositide-3-kinase regulatory subunit 3),1,0.451,inactive
PIK3R3 (phosphoinositide-3-kinase regulatory subunit 3),2,-0.253,inactive
PIK3R3 (phosphoinositide-3-kinase regulatory subunit 3),3,-0.961,inactive
PIK3R3 (phosphoinositide-3-kinase regulatory subunit 3),4,-1.15,inactive
PIK3R3 (phosphoinositide-3-kinase regulatory subunit 3),5,-0.793,inactive
PIK3R3 (phosphoinositide-3-kinase regulatory subunit 3),6,-3.94,active
IL12A (interleukin 12A),1,0.709,inactive
IL12A (interleukin 12A),2,-0.995,inactive
IL12A (interleukin 12A),3,-0.115,inactive
IL12A (interleukin 12A),4,0.578,inactive
IL12A (interleukin 12A),5,-1.12,inactive
IL12A (interleukin 12A),6,0.0137,inactive
MAPK12 (mitogen-activated protein kinase 12),1,0.164,inactive
MAPK12 (mitogen-activated protein kinase 12),2,-0.588,inactive
MAPK12 (mitogen-activated protein kinase 12),3,-0.436,inactive
MAPK12 (mitogen-activated protein kinase 12),4,-1.65,active
MAPK12 (mitogen-activated protein kinase 12),5,1.17,inactive
MAPK12 (mitogen-activated protein kinase 12),6,-1.04,inactive
TRADD (TNFRSF1A associated via death domain),1,-0.865,inactive
TRADD (TNFRSF1A associated via death domain),2,-0.553,inactive
TRADD (TNFRSF1A associated via death domain),3,0.41,inactive
TRADD (TNFRSF1A associated via death domain),4,-2.93,active
TRADD (TNFRSF1A associated via death domain),5,1.11,inactive
TRADD (TNFRSF1A associated via death domain),6,-2.88,active
PTPN6 (protein tyrosine phosphatase non-receptor type 6),1,-1.12,inactive
PTPN6 (protein tyrosine phosphatase non-receptor type 6),2,0.242,inactive
PTPN6 (protein tyrosine phosphatase non-receptor type 6),3,0.139,inactive
PTPN6 (protein tyrosine phosphatase non-receptor type 6),4,-1.69,active
PTPN6 (protein tyrosine phosphatase non-receptor type 6),5,-1.32,inactive
PTPN6 (protein tyrosine phosphatase non-receptor type 6),6,-0.954,inactive
UBE2N (ubiquitin conjugating enzyme E2 N),1,0.142,inactive
UBE2N (ubiquitin conjugating enzyme E2 N),2,-0.786,inactive
UBE2N (ubiquitin conjugating enzyme E2 N),3,1.51,active
UBE2N (ubiquitin conjugating enzyme E2 N),4,-1.9,active
UBE2N (ubiquitin conjugating enzyme E2 N),5,-0.357,inactive
UBE2N (ubiquitin conjugating enzyme E2 N),6,0.515,inactive
MAP2K4 (mitogen-activated protein kinase kinase 4),1,-1.35,inactive
MAP2K4 (mitogen-activated protein kinase kinase 4),2,-1.22,inactive
MAP2K4 (mitogen-activated protein kinase kinase 4),3,0.159,inactive
MAP2K4 (mitogen-activated protein kinase kinase 4),4,0.634,inactive
MAP2K4 (mitogen-activated protein kinase kinase 4),5,-0.0755,inactive
MAP2K4 (mitogen-activated protein kinase kinase 4),6,-1.01,inactive
MAPK8 (mitogen-activated protein kinase 8),1,0.326,inactive
MAPK8 (mitogen-activated protein kinase 8),2,-1.3,inactive
MAPK8 (mitogen-activated protein kinase 8),3,0.027,inactive
MAPK8 (mitogen-activated protein kinase 8),4,0.0732,inactive
MAPK8 (mitogen-activated protein kinase 8),5,-0.379,inactive
MAPK8 (mitogen-activated protein kinase 8),6,0.00826,inactive
TLR4 (toll like receptor 4),1,-0.197,inactive
TLR4 (toll like receptor 4),2,-0.809,inactive
TLR4 (toll like receptor 4),3,0.164,inactive
TLR4 (toll like receptor 4),4,0.612,inactive
TLR4 (toll like receptor 4),5,-0.404,inactive
TLR4 (toll like receptor 4),6,-0.61,inactive
LY86 (lymphocyte antigen 86),1,0.158,inactive
LY86 (lymphocyte antigen 86),2,-0.0775,inactive
LY86 (lymphocyte antigen 86),3,0.00538,inactive
LY86 (lymphocyte antigen 86),4,-3.09,active
LY86 (lymphocyte antigen 86),5,-0.442,inactive
LY86 (lymphocyte antigen 86),6,-0.392,inactive
